Assay results from publication PMC12847938.
No constants are given. Whether binding was seen depends on the method and setting. Binding seen in cells or lysates may run through a third protein. Some entries that bind do so weakly or less than the wild type. For part of these data: Tags and fused reporters may be left off the sequences shown. Each block holds one molecule with its values, some of them ahead of it.

The chains behind the UniProt entries cited, without tags or fusion partners. Where a name states a change or a piece, a line headed by the entry shows the natural chain unless it says otherwise.
UniProt P06733: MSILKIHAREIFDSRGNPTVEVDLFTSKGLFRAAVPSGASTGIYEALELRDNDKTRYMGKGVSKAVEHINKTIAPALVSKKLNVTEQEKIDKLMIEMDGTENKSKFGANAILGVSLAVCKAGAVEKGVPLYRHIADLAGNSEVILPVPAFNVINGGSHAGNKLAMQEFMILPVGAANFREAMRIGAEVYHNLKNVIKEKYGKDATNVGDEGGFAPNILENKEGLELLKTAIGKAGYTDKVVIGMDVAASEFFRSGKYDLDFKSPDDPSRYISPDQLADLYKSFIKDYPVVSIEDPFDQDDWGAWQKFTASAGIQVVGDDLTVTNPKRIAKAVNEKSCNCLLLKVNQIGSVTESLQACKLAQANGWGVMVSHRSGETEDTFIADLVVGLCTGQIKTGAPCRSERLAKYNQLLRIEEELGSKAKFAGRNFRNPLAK
UniProt Q9UNE7: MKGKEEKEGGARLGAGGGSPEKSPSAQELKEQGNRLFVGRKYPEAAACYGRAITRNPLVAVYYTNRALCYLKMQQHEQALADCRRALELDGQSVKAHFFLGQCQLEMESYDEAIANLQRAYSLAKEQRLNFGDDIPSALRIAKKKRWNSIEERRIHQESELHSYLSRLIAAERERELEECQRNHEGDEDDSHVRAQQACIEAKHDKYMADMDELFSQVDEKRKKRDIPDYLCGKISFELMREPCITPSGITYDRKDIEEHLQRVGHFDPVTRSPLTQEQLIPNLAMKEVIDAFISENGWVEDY

What was measured:
His-RRM2 [1] = molecular target: T1, His-RRM2 (UniProt P31350); test: co-IP; HEK293T cells transfected with tagged plasmids; tag antibodies (flag, His, Myc) for precipitation and WB detection
T1 sequence: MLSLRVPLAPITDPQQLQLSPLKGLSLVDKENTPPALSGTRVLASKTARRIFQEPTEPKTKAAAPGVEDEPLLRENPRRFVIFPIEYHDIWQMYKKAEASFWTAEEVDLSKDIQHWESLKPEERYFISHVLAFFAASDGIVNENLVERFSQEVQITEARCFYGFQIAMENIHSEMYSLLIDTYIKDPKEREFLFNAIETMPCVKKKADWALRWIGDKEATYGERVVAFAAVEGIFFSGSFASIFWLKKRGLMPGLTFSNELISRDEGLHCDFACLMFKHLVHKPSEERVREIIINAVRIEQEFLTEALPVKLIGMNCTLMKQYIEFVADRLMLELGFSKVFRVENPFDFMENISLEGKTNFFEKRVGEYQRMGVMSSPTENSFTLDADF

His-RRM2 [2] = molecular target: T1, His-RRM2; test: co-IP; HEK293T cells co-transfected with Myc-STUB1, His-RRM2 and different amounts of flag-ENO1; His and Myc antibodies for precipitation and WB detection
[3] = molecular target: T2, Ribonucleotide reductase M2 subunit (RRM2), endogenous in PANC-1 cells (human (endogenous in PANC-1)) (UniProt P31350); test: co-IP; endogenous proteins precipitated from PANC-1 cell lysates with specific antibodies, WB detection, IgG as negative control; also in cells transfected with sh-ENO1
T2 sequence: T1 sequence

[4] = molecular target: enolase-1 (ENO1), endogenous in PANC-1 cells (human (endogenous in PANC-1)) (UniProt P06733); test: as above
flag-ENO1^D245R = flag-ENO1^D245R (UniProt P06733); test: co-IP; HEK293T cells transfected with tagged plasmids; tag antibodies (flag, His, Myc) for precipitation and WB detection
flag-ENO1^WT = flag-ENO1^WT (UniProt P06733); test: as above

Molecule: STUB1, endogenous in PANC-1 cells (from UniProt Q9UNE7 1-303)
binding [3]: binds

B2: His-RRM2 (protein, UniProt P31350 1-389)
chain: T1 sequence
binding (flag-ENO1^D245R): binds
binding (flag-ENO1^WT): binds

Results, then the molecule that gave them:

binding (His-RRM2 [1]): binds
binding (His-RRM2 [2]): binds
Molecule: Myc-STUB1 (from UniProt Q9UNE7 1-303)

binding [4]: binds
B1: Ribonucleotide reductase M2 subunit (RRM2), endogenous in PANC-1 cells (protein, UniProt P31350 1-389)
chain: T1 sequence
